These are yes or no findings as the source states them, for the method shown. In cells and extracts the contact can be indirect. Some binding calls cover weakened binding; strength is not graded here. For some assays here: Where a sequence is shown, tags or fusion partners need not be part of it. Blank lines part the entries; values can stand above or below the molecule they belong to.
What was measured:
3xFLAG-GABARAP = 3xFLAG-GABARAP (UniProt O95166); assay: co-IP
FLAG-DNAJB12 (WT) = biological target: T1, FLAG-DNAJB12 (WT) (UniProt Q9NXW2); assay: co-IP
T1 sequence: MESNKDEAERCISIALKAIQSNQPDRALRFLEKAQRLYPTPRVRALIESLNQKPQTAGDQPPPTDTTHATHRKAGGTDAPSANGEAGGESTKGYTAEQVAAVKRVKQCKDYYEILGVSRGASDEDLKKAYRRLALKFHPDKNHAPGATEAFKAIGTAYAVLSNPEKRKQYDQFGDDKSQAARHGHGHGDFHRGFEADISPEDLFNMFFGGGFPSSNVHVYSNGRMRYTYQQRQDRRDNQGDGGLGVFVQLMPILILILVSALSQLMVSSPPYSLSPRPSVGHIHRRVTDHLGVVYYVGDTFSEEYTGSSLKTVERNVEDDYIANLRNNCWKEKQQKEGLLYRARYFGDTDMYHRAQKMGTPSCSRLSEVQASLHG

Amino acid sequences for entries named in this document (tags omitted).
UniProt O95166: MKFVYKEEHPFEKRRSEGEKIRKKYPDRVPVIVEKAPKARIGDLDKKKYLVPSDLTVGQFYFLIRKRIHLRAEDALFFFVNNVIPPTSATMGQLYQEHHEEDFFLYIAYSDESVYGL
UniProt Q8TDY2: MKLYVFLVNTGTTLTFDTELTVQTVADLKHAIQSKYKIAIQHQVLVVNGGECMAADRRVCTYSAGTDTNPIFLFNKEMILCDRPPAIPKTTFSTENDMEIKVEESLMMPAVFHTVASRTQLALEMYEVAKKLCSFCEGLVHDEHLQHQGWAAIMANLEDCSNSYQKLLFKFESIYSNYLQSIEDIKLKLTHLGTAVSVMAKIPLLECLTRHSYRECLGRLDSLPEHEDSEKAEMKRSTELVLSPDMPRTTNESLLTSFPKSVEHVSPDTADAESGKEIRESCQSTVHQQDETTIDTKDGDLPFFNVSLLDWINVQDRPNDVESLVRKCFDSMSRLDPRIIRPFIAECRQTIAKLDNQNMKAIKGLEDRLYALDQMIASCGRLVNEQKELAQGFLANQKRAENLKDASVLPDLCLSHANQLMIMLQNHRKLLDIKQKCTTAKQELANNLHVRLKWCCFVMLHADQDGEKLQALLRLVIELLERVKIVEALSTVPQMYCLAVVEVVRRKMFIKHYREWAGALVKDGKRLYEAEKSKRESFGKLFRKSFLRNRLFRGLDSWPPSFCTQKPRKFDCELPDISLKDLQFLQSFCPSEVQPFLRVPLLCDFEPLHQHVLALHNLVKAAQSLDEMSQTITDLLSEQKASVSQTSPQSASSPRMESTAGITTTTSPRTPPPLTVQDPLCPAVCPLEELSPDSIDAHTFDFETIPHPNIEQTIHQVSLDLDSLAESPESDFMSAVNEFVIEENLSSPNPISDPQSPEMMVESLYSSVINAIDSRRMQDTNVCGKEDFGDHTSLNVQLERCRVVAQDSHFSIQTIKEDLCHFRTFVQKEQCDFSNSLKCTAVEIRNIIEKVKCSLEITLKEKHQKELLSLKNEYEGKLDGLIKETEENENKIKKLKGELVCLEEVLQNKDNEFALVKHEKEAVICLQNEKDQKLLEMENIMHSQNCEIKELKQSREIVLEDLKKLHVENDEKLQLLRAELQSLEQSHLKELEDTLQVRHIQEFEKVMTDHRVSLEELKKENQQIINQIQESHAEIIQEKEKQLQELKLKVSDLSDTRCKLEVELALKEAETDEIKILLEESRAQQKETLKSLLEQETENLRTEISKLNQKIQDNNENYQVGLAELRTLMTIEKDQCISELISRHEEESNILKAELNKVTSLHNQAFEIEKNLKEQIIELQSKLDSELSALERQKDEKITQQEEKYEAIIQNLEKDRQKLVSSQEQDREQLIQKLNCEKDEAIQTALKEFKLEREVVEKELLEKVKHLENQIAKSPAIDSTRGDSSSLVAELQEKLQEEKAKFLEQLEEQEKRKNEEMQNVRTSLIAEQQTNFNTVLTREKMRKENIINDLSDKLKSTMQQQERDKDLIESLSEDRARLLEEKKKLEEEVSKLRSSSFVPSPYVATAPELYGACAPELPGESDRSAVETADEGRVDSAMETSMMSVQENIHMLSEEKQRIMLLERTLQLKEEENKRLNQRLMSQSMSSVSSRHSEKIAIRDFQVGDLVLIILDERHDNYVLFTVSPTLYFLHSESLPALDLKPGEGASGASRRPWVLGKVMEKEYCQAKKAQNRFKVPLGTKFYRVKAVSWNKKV
UniProt Q9Y6I9: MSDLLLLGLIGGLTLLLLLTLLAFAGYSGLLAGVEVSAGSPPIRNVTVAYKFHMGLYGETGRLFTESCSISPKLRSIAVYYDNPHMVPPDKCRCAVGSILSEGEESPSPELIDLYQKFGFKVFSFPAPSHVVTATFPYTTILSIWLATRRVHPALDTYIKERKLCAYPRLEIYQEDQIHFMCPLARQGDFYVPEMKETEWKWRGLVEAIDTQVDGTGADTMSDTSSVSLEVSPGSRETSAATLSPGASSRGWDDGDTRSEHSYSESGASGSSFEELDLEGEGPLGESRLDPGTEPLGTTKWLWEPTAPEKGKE

GST-GABARAP = GST-GABARAP (UniProt O95166); assay: pull-down

binding (3xFLAG-GABARAP): binds
binding (FLAG-DNAJB12 (WT)): binds
binding (GST-GABARAP): binds
Molecule: FIP200 (focal adhesion kinase family interacting protein of 200 kD) (from UniProt Q8TDY2 1-1594)

binding (GST-GABARAP): binds
Molecule: TEX264 (from UniProt Q9Y6I9 1-313)

binding (GST-GABARAP): binds
B1: CCPG1 (protein, UniProt Q9ULG6 1-757)
chain: MSENSSDSDSSCGWTVISHEGSDIEMLNSVTPTDSCEPAPECSSLEQEELQALQIEQGESSQNGTVLMEETAYPALEETSSTIEAEEQKIPEDSIYIGTASDDSDIVTLEPPKLEEIGNQEVVIVEEAQSSEDFNMGSSSSSQYTFCQPETVFSSQPSDDESSSDETSNQPSPAFRRRRARKKTVSASESEDRLVAEQETEPSKELSKRQFSSGLNKCVILALVIAISMGFGHFYGTIQIQKRQQLVRKIHEDELNDMKDYLSQCQQEQESFIDYKSLKENLARCWTLTEAEKMSFETQKTNLATENQYLRVSLEKEEKALSSLQEELNKLREQIRILEDKGTSTELVKENQKLKQHLEEEKQKKHSFLSQRETLLTEAKMLKRELERERLVTTALRGELQQLSGSQLHGKSDSPNVYTEKKEIAILRERLTELERKLTFEQQRSDLWERLYVEAKDQNGKQGTDGKKKGGRGSHRAKNKSKETFLGSVKETFDAMKNSTKEFVRHHKEKIKQAKEAVKENLKKFSDSVKSTFRHFKDTTKNIFDEKGNKRFGATKEAAEKPRTVFSDYLHPQYKAPTENHHNRGPTMQNDGRKEKPVHFKEFRKNTNSKKCSPGHDCRENSHSFRKACSGVFDCAQQESMSLFNTVVNPIRMDEFRQIIQRYMLKELDTFCHWNELDQFINKFFLNGVFIHDQKLFTDFVNDVKDYLRNMKEYEVDNDGVFEKLDEYIYRHFFGHTFSPPYGPRSVYIKPCHYSSL

— article doi:10.1101/2021.10.20.465144
